Results reported in the supplement of paper PMC10849652.
The list shows a part of the results.

The chains behind the UniProt entries cited, without tags or fusion partners. Where a name states a change or a piece, a line headed by the entry shows the natural chain unless it says otherwise.
UniProt Q8TCY9: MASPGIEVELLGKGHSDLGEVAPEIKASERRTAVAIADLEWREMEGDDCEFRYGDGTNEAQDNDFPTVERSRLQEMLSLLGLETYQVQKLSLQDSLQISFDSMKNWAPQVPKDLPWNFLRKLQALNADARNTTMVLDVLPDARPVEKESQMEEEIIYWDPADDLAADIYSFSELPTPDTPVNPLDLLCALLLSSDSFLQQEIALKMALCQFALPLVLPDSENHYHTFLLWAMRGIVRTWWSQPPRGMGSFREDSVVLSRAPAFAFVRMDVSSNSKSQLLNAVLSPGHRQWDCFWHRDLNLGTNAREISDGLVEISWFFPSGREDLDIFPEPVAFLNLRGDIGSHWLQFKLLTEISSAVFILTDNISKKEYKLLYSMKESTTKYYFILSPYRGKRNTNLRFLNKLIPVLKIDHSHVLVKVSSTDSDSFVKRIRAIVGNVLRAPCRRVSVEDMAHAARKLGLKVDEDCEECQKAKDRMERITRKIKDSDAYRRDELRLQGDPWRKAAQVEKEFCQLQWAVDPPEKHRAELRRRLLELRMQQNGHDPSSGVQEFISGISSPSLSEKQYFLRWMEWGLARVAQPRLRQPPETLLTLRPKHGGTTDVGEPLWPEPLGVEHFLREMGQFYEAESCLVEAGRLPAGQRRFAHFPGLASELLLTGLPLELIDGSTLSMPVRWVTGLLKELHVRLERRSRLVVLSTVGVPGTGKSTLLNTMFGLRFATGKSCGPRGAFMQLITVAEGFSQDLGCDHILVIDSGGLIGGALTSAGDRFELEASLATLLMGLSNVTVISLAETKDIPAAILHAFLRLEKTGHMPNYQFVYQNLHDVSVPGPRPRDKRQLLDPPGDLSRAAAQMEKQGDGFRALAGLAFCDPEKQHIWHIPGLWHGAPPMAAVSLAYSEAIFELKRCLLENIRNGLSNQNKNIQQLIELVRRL
UniProt Q9BVJ6: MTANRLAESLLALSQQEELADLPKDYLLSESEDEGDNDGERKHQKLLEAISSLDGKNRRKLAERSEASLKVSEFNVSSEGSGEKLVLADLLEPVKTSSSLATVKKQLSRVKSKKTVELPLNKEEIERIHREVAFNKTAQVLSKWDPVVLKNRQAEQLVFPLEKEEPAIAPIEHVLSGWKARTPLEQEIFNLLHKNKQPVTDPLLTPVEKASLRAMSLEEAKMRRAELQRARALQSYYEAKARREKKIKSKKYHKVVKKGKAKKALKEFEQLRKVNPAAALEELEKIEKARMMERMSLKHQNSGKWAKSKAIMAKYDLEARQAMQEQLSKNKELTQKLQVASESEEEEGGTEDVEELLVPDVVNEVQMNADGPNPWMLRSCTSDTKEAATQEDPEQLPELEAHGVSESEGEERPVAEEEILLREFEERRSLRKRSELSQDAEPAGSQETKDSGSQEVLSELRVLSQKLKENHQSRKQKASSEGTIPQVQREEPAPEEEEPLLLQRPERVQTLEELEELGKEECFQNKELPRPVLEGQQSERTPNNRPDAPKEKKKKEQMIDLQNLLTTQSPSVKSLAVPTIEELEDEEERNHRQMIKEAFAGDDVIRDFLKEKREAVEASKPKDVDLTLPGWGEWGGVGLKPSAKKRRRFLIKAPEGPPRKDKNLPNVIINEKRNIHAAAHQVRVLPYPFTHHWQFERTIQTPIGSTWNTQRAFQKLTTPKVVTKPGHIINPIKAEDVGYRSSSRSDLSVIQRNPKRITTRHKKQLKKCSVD
UniProt Q9BZM5, whole entry, looked up: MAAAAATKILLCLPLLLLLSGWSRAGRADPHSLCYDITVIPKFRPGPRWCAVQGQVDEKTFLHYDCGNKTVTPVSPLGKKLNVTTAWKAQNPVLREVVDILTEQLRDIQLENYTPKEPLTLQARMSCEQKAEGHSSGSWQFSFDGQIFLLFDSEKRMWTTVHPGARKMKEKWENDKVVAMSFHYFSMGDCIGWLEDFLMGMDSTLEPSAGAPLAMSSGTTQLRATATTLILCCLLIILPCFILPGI
UniProt Q9H867: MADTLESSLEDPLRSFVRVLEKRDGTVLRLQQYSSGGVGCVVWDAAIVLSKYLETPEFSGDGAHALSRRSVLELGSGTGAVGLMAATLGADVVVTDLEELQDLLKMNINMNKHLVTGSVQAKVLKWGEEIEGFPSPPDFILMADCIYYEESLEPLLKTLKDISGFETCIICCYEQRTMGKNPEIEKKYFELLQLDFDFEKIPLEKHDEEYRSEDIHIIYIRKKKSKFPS
UniProt Q15853: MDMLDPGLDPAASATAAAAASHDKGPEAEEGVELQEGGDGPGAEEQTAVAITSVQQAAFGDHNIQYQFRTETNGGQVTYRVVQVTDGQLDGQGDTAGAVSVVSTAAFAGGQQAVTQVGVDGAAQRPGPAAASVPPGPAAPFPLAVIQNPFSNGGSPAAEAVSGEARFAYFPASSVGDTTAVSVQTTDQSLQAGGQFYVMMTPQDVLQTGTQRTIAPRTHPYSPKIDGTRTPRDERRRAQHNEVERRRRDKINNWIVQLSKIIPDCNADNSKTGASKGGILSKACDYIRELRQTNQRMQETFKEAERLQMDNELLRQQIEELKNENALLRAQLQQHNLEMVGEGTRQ
UniProt Q9UPT9: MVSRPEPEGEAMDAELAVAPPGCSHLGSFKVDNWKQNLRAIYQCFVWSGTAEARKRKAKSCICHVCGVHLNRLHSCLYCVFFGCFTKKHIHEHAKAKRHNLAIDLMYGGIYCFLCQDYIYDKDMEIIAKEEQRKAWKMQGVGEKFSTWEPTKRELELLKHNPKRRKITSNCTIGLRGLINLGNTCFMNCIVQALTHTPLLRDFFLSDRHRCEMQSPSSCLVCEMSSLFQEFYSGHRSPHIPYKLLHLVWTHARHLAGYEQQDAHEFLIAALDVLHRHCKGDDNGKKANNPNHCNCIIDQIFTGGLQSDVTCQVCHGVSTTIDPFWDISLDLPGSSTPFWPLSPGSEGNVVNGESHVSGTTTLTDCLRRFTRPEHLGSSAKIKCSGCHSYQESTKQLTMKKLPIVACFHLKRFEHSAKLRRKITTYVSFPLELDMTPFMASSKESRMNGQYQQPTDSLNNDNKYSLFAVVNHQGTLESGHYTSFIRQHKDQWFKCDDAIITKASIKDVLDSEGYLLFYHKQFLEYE
UniProt O94763, whole entry, looked up: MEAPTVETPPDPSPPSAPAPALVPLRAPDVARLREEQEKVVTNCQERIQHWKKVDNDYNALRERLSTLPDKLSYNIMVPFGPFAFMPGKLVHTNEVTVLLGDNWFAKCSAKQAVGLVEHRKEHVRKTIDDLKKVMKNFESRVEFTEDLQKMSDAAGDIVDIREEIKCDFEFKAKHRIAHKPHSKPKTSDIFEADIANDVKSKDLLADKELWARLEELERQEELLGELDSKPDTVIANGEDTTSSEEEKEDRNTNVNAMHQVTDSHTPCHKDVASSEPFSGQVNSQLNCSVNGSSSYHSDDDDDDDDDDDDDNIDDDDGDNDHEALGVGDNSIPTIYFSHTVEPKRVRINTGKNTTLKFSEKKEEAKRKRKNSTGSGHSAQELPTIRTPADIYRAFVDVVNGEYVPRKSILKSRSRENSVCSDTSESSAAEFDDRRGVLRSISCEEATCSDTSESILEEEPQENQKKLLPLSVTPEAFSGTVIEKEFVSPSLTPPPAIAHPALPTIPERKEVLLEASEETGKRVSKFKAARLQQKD
UniProt Q14135: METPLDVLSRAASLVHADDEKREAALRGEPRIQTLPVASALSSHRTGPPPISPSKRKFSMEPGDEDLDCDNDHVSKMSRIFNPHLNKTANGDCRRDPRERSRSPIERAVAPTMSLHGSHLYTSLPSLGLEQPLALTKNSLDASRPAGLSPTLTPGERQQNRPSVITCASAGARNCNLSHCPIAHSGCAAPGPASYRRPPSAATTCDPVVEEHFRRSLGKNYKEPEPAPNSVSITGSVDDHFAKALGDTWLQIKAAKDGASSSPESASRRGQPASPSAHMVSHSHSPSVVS
UniProt Q6UW78: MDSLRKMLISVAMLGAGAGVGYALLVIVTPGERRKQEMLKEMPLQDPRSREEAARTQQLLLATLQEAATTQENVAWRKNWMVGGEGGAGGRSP
UniProt Q9BRU9: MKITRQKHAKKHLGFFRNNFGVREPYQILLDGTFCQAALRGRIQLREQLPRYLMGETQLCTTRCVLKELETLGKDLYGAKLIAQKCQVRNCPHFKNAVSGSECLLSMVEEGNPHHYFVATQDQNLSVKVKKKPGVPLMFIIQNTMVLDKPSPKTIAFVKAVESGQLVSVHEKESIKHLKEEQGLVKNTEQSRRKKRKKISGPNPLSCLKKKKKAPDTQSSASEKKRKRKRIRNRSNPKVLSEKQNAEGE

Experiments:
Assay in all cases: log2 fold change, soluble protein after heating vs DMSO (PISA); higher = thermal stabilisation; K562 lysate, 10 uM; active = over 0.2 and 3.5 SD of the protein, either way, in both replicates (recomputed)
ibrutinib = compound: C=CC(=O)N1CCC[C@@H](n2nc(-c3ccc(Oc4ccccc4)cc3)c3c(N)ncnc32)C1 [ibrutinib]
Summary of the method: (§1)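 Soluble protein was defined as the supernatant remaining after 21,000xg for 90 min, following pooling of heated aliquots and adjustment to 0.5% NP-40 at 4°C. Before that, crude K562 extract at 1 mg/mL protein in PBS pH 7.4 with 1 mM MgCl2 was treated with 10 μM compound for 30 min and heated for 3 min across 48°C-58°C. Quantification used TMTpro 16plex LC-MS/MS with channel sums equalised, and values are log-two fold changes in thermal stability relative to solvent controls from duplicates.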

[1] = compound: CC(=O)c1cnc2ccc(-c3cc(Cl)c(O)c(Cl)c3)nc2c1N[C@H]1CC[C@H](CN(C)C)CC1
Summary of the method: as §1

ralimetinib = compound: CC(C)(C)Cn1c(N)nc2ccc(-c3[nH]c(C(C)(C)C)nc3-c3ccc(F)cc3)nc21 [ralimetinib]
Summary of the method: as §1

[2] = compound: CC(C)(O)CC(=O)NCCn1ccc2ncnc(Nc3ccc(Oc4cccc(C(F)(F)F)c4)c(Cl)c3)c21
Summary of the method: as §1

[3] = compound: CC1=C(C=C(C=C1)NC(=O)C2=CC(=CC=C2)N(C)C)NC(=O)C3=CC=C(C=C3)O
Summary of the method: as §1

[4] = compound: CC1=CC=C(C=C1)SC2=C3C=C(SC3=CN=C2)C(=O)N
Summary of the method: as §1

vemurafenib = compound: CCCS(=O)(=O)Nc1ccc(F)c(C(=O)c2c[nH]c3ncc(-c4ccc(Cl)cc4)cc23)c1F [vemurafenib]
Summary of the method: as §1

[5] = compound: CCCS(=O)(=O)Nc1ccc(F)c(C(=O)c2c[nH]c3ncc(Cl)cc23)c1F
Summary of the method: as §1

barasertib = compound: CCN(CCCOc1ccc2c(Nc3cc(CC(=O)Nc4cccc(F)c4)[nH]n3)ncnc2c1)CCOP(=O)(O)O [barasertib]
Summary of the method: as §1

[6] = compound: CC[C@@H]1C(=O)N(C)c2cnc(Nc3ccc(C(=O)NC4CCN(C)CC4)cc3OC)nc2N1C1CCCC1
Summary of the method: as §1

volasertib = compound: CC[C@@H]1C(=O)N(C)c2cnc(Nc3ccc(C(=O)N[C@H]4CC[C@H](N5CCN(CC6CC6)CC5)CC4)cc3OC)nc2N1C(C)C [volasertib]
Summary of the method: as §1

[7] = compound: CCn1c(C(=O)N(C2CC2)C2CC2)cc2c3c(ncn3C)c(Nc3cc(C)n(C)n3)nc21
Summary of the method: as §1

[8] = compound: CC(C)C1=C2N=C(C=C(N2N=C1)NCC3=CC=CC=C3)NCCCCCCN
Summary of the method: as §1

[9] = compound: CC1=C(C2=C(C=C1)C(=O)C3=CC=CC=C3N2CCCN)C
Summary of the method: as §1

[10] = compound: CC1=C(C=C(C=C1)NC(=O)C2=CC(=CC=C2)C(C)(C)C#N)NC3=CC4=C(C=C3)N=CN(C4=O)C
Summary of the method: as §1

saracatinib = compound: CN1CCN(CCOc2cc(OC3CCOCC3)c3c(Nc4c(Cl)ccc5c4OCO5)ncnc3c2)CC1 [saracatinib]
Summary of the method: as §1

sotrastaurin = compound: CN1CCN(c2nc(C3=C(c4c[nH]c5ccccc45)C(=O)NC3=O)c3ccccc3n2)CC1 [sotrastaurin]
Summary of the method: as §1

[11] = compound: CC1=C(C(CC(=O)N1)C2=CC=C(C=C2)C(F)(F)F)C(=O)NC3=C(C=C4C(=C3)C=NN4)F
Summary of the method: as §1

[12] = compound: CCn1cc(-c2ccnc3[nH]c(-c4cccc(CN(C)C)c4)cc23)c(-c2ccc(NC(=O)N(C)C)cc2)n1
Summary of the method: as §1

[13] = compound: CN1CCC(CNc2ccc3ncc(-c4cccc(OC(F)(F)F)c4)n3n2)CC1
Summary of the method: as §1

Measured: log2 fold change

UROD (UniProt H0Y5R6)
inactive: ibrutinib 0.05 | [1] 0.101 | ralimetinib 0.116 | [2] -0.116 | [3] -0.345 | [4] -0.077 | vemurafenib 0.314 | [5] 0.127 | barasertib -0.493 | [6] -0.007 | volasertib -0.047 | [7] 0.12

USP20 (UniProt Q9Y2K6)
inactive: ibrutinib 0.144 | ralimetinib -0.014 | [2] -0.167 | [8] 0.027 | [9] 0.01 | [10] -0.114 | [3] 0.078 | barasertib 0.067 | [6] -0.006 | [7] -0.1 | saracatinib -0.015 | sotrastaurin 0.119

URGCP (UniProt Q8TCY9)
active: [2] -0.515
inactive: ibrutinib 0.081 | ralimetinib -0.07 | [11] -0.05 | [9] 0.008 | [3] -0.042 | vemurafenib 0.191 | barasertib -0.023 | [7] -0.069 | saracatinib 0

UTP14A (UniProt Q9BVJ6)
inactive: ibrutinib 0.009 | [1] 0.029 | ralimetinib 0.001 | [2] 0.009 | [8] -0.076 | [11] -0.004 | [9] -0.045 | [10] 0.024 | [3] -0.069 | [4] -0.014 | vemurafenib 0.083 | [5] 0.009 | barasertib 0.012 | [6] 0.043 | volasertib 0.004 | [7] -0.004 | [12] 0.011 | [13] -0.046 | saracatinib 0.044 | sotrastaurin 0.011

ULBP2 (UniProt Q9BZM5)
inactive: ibrutinib -0.011 | [1] 0 | ralimetinib -0.017 | [2] -0.034 | [8] -0.048 | [9] 0.2 | [10] 0.04 | [3] 0.06 | [4] -0.049 | vemurafenib -0.098 | [5] 0.03 | barasertib -0.037 | [6] 0.012 | volasertib 0.076 | [7] 0.042 | [12] 0.151 | [13] 0.045 | saracatinib -0.091 | sotrastaurin 0.097

VCPKMT (UniProt Q9H867)
inactive: ibrutinib -0.131 | [8] -0.246 | [10] -0.011 | barasertib 0.237 | sotrastaurin 0.485

USF2 (UniProt Q15853)
inactive: ibrutinib -0.007 | [1] 0.013 | ralimetinib 0.008 | [2] 0.002 | [8] 0.029 | [11] -0.051 | [9] 0.006 | [10] -0.041 | [3] 0.009 | [4] -0.045 | vemurafenib -0.063 | [5] 0.018 | barasertib 0.031 | [6] 0.118 | volasertib -0.021 | [7] -0.005 | [12] 0.095 | [13] 0.002 | saracatinib -0.011 | sotrastaurin 0.05

USP22 (UniProt Q9UPT9)
inactive: ibrutinib -0.031 | ralimetinib 0.023 | [2] 0.006 | [8] 0.027 | [11] -0.057 | [9] -0.034 | [10] 0.065 | [3] 0.056 | vemurafenib -0.019 | barasertib 0.008 | [6] 0.026 | [7] 0.034 | [12] 0.031 | [13] 0 | saracatinib -0.026 | sotrastaurin 0.018

URI1 isoform 4 (UniProt O94763)
inactive: ibrutinib -0.069 | [1] -0.001 | ralimetinib 0.054 | [2] -0.078 | [8] 0.05 | [11] 0.037 | [9] 0.019 | [10] -0.034 | [3] -0.018 | [4] 0.085 | [5] 0.047 | barasertib -0.1 | [6] 0.072 | volasertib 0.014 | [7] -0.062 | [12] -0.092 | [13] 0.079 | saracatinib -0.029 | sotrastaurin 0.022

VGLL4 isoform 4 (UniProt Q14135)
inactive: ibrutinib 0.366 | ralimetinib 0.048 | [2] -0.037 | [8] 0.024 | [11] 0.018 | [9] -0.033 | [10] 0.035 | [3] 0.072 | barasertib -0.118 | [7] -0.016 | [12] -0.017 | [13] 0.069 | saracatinib 0.019 | sotrastaurin -0.062

Retrieved one by one from above, 2 records:
USF2 (UniProt Q15853)
inactive: ibrutinib -0.007 | [1] 0.013 | ralimetinib 0.008 | [2] 0.002 | [8] 0.029 | [11] -0.051 | [9] 0.006 | [10] -0.041 | [3] 0.009 | [4] -0.045 | vemurafenib -0.063 | [5] 0.018 | barasertib 0.031 | [6] 0.118 | volasertib -0.021 | [7] -0.005 | [12] 0.095 | [13] 0.002 | saracatinib -0.011 | sotrastaurin 0.05

USP22 (UniProt Q9UPT9)
inactive: ibrutinib -0.031 | ralimetinib 0.023 | [2] 0.006 | [8] 0.027 | [11] -0.057 | [9] -0.034 | [10] 0.065 | [3] 0.056 | vemurafenib -0.019 | barasertib 0.008 | [6] 0.026 | [7] 0.034 | [12] 0.031 | [13] 0 | saracatinib -0.026 | sotrastaurin 0.018

More results.

UQCC3 (UniProt Q6UW78)
inactive: ibrutinib 0.2 | [1] -0.202 | ralimetinib 0.147 | [2] -0.11 | [8] -0.015 | [9] 0.099 | [3] -0.212 | [4] 0.085 | vemurafenib -0.158 | [5] 0 | barasertib 0.248 | [6] 0.025 | volasertib -0.196 | [7] 0.21 | [12] 0.228 | [13] -0.182 | saracatinib -0.06

UTP23 (UniProt Q9BRU9)
inactive: ibrutinib -0.056 | [1] -0.022 | ralimetinib 0.049 | [2] -0.036 | [8] 0.119 | [9] -0.008 | [10] 0.025 | [3] -0.057 | [4] -0.02 | [5] 0.06 | barasertib 0.02 | volasertib 0.02 | [7] 0.084 | [12] -0.017 | [13] -0.015 | saracatinib 0.025 | sotrastaurin -0.012
